PubChem BioAssay AID1259405 – NCATS – 2018

- Test: 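Knock-downs that lift recombinant protein yield in hamster ovary cells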 (primary screen)
- Cell system: Chinese hamster CHO-K1 ovary cells with stable secreted eGFP expression
- Reagent: single siRNA against mouse genes, 0.8 pmol siRNA per well (2 µl of 400 nM stock)
- Timing: 3 days
- Detection: 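Percent of the per-plate non-targeting control median for intracellular GFP per well by laser scanning cytometry and for cell viability by ATP luminescence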
- Scale: GFP, % of control: higher = more GFP per well, higher productivity; viability (ATP), % of control: higher = more viable cells (more ATP)
- Hit rule: 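Called active when intracellular GFP, relative to negative control, is at or above 120%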
Here is an unselected part of about 50,000 reagents. About 4,000 of them (8%) were called active. 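Mouse siRNA library applied to hamster cells; one well for each siRNA.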 Entries without a mark were called inactive. The numbers tell different reagents against one gene apart. Reagent sequences are not shown.

| gene symbol | siRNA no. | GFP, % of control | viability (ATP), % of control |
| --- | --- | --- | --- |
| Slc45a3 | 1 | 45.4 | 49.1 |
| Slc45a3 | 2 | 67.4 | 104 |
| Slc45a3 | 3 | 65.7 | 84.8 |
| Cybc1 | 1 | 43.2 | 65.1 |
| Cybc1 | 2 | 101 | 115 |
| Cybc1 | 3 | 140 (active) | 155 |
| Art3 | 1 | 105 | 93.1 |
| Art3 | 2 | 88.3 | 133 |
| Art3 | 3 | 118 | 115 |
| Or1j10 | 1 | 78 | 68.1 |
| Or1j10 | 2 | 66 | 36.6 |
| Or1j10 | 3 | 52.8 | 74.8 |
| C1qb | 1 | 66.6 | 73.9 |
| C1qb | 2 | 42.6 | 33.1 |
| C1qb | 3 | 97.6 | 57.2 |
| Ifnab | 1 | 70.9 | 62 |
| Ifnab | 2 | 119 | 56.2 |
| Ifnab | 3 | 141 (active) | 83.1 |
| Glt8d1 | 1 | 143 (active) | 78.6 |
| Glt8d1 | 2 | 36.7 | 65.9 |
| Glt8d1 | 3 | 83.5 | 81 |
| Col6a3 | 1 | 40.1 | 77 |
| Col6a3 | 2 | 85.9 | 92.1 |
| Itgb3 | 1 | 65.9 | 139 |
| Itgb3 | 2 | 70.4 | 77.7 |
| Zcchc9 | 1 | 58.8 | 33.1 |
| Zcchc9 | 2 | 18.4 | 23 |
| Zcchc9 | 3 | 82.5 | 99.3 |
| Stox2 | 1 | 80.4 | 81.3 |
| Stox2 | 2 | 99 | 89.5 |
| Stox2 | 3 | 79.7 | 102 |
| Oog1 | 1 | 70.4 | 67.2 |
| Oog1 | 2 | 51.5 | 64.2 |
| Oog1 | 3 | 81.6 | 58.1 |
| B3galnt1 | 1 | 98.2 | 92 |
| B3galnt1 | 2 | 82.9 | 91.1 |
| B3galnt1 | 3 | 26.3 | 26.3 |
| Rabggta | 1 | 82.5 | 67.4 |
| Rabggta | 2 | 63 | 62.1 |
| Rabggta | 3 | 77.9 | 62.2 |
| Wdr46 | 1 | 90.9 | 64.8 |
| Wdr46 | 2 | 82.9 | 75 |
| Arhgap4 | 1 | 142 (active) | 81.8 |
| Arhgap4 | 2 | 78.3 | 75.2 |
| Arhgap4 | 3 | 98.3 | 113 |
| Tmem41b | 1 | 62 | 89.3 |
| Tmem41b | 2 | 84 | 77.2 |
| Tmem41b | 3 | 73.2 | 85.6 |
| Ganab | 1 | 58 | 47.3 |
| Ganab | 2 | 66.6 | 102 |
| Ganab | 3 | 51.8 | 59.1 |
| Tspyl1 | 1 | 55.7 | 81.2 |
| Tspyl1 | 2 | 63.1 | 33.1 |
| Tspyl1 | 3 | 104 | 59.4 |
| Tmem163 | 1 | 98.4 | 50.1 |
| Tmem163 | 2 | 41.3 | 44.7 |
| Tmem163 | 3 | 78.6 | 87.3 |
| Ext2 | 1 | 128 (active) | 132 |
| Ext2 | 2 | 45.6 | 74.4 |
| Ext2 | 3 | 116 | 127 |
| Klk1b16 | 1 | 95.4 | 105 |
| Klk1b16 | 2 | 34.7 | 28.1 |
| Klk1b16 | 3 | 87 | 65.5 |
| Diablo | 1 | 72.9 | 76.7 |
| Diablo | 2 | 116 | 96.7 |
| Elac1 | 1 | 108 | 106 |
| Elac1 | 2 | 100 | 92.1 |
| Elac1 | 3 | 103 | 127 |
| Il17a | 1 | 37 | 40.3 |
| Il17a | 2 | 61.6 | 61.2 |
| Il17a | 3 | 60.2 | 58 |
| Nlrx1 | 1 | 55.7 | 62.1 |
| Nlrx1 | 2 | 87.3 | 58.1 |
| Nlrx1 | 3 | 95 | 97.4 |
| Chd1 | 1 | 83.8 | 102 |
| Chd1 | 2 | 60.4 | 66.7 |
| Chd1 | 3 | 96.7 | 61.1 |
| Hes5 | 1 | 75.8 | 76 |
| Hes5 | 2 | 87.7 | 37.1 |
| Hes5 | 3 | 93.6 | 83.8 |
| Gramd1c | 1 | 83.1 | 80.8 |
| Gramd1c | 2 | 51.2 | 72.6 |
| Gramd1c | 3 | 109 | 109 |
| C1qtnf1 | 1 | 41.4 | 44.3 |
| C1qtnf1 | 2 | 80.9 | 82.8 |
| C1qtnf1 | 3 | 58.5 | 73.2 |

Taken from above.
Result for Art3 #3 under “viability (ATP), % of control”: 115
For “GFP, % of control”, Hes5 #2 has 87.7
For “viability (ATP), % of control”, Stox2 #3 shows 102
For “viability (ATP), % of control”, Cybc1 #1 shows 65.1
For “GFP, % of control”, Col6a3 #2 shows 85.9
Zcchc9 #3, viability (ATP), % of control: 99.3
